A short description of this data set: IV bag solution stability of fully diluted ready-to-use iloprost (HPLC). Type of data set: physicochemical. As for the experimental part: Iloprost 100 μg/mL injection product is administered to patients by IV bag infusion over a period of six hours. The fully diluted ready to use iloprost is prepared in pharmacy cleanroom using sterile preparation standards (USP Chapter <797>) by pharmacy trained and licensed staff. The fully diluted ready to use drug product may be prepared several hours ahead of treatment with storage at ambient conditions or several days ahead of treatment with storage at refrigerated (2-8° C.) conditions. […] The bags are then manually mixed gently to provide a uniform solution. Administration IV bags were prepared and stored at several conditions with routine sampling for assay testing for stability under i) 25° C./60% RH, ii) 5° C. for 5 days to 25° C./60% RH, iii) 5° C. for 8 days to 25° C./60% RH. IV Bag Sample Preparation: Two 50 mL syringes with 18-gauge needles were assembled. 1.0 mL syringe with 18-gauge needle was assembled. Using a 50 ml syringe, 50 mL of 0.9% NaCl was transferred into an empty IV bag (sterile, ICU Medical) using the injection port. Using a second 50 ml syringe, 49 mL of 0.9% NaCl was transferred into the same IV bag using the injection port resulting in 99 mL of solution. […] The needle was removed and the port was securely closed. The IV bag was gently inverted several times to mix. During inversion, it was occasionally paused to squeeze the injection port area to ensure liquid rinsed into area several times. Sampling Procedure: For sampling, a 3 mL syringe was assembled with an 18-gauge needle. Using a 3 mL syringe, 2 mL of IV bag solution was withdrew through the injection port and 1 mL was transferred to a HPLC vial for neat injection and the other 1 mL was transferred to a back-up HPLC vial. HPLC vials were stored at refrigerated conditions 2-8° C. Sample Storage and Sampling: For each testing conditions (i-iv discussed above), 12 IV bag samples were prepared (6 IV bags for condition ia)-see below for sampling time). For condition i), all 12 IV bags were then placed into 25° C./60% RH stability chamber ensuring each bag is resting on its largest surface area side. After the first time point, the IV bags were removed from the chamber and each IV bag was mixed by inversion several times. Sampling from each IV bag was taken for HPLC analysis. After sampling, the IV bags were placed back into 25° C./60% RH stability chamber ensuring each bag is resting on its largest surface area side, until next sampling time. At each sampling time, the IV bags were removed from the chamber and each IV bag was mixed by inversion several times before samples were removed. For conditions ii) and iii), all 12 IV bags for each testing condition were placed into a 2-8° C. stability chamber ensuring each bag is resting on its largest surface area side. After 5 days have passed for condition ii) or after 8 days have passed for condition iii), the IV bags were removed from the chamber and allowed to equilibrate to room temperature. Each IV bag was mixed by inversion several times. Sampling from each IV bag was taken for HPLC analysis. Then the IV bags were placed in the 25° C./60% RH stability chamber and sampled at certain time points as discussed herein. Sampling time for condition […], and 24 h Sampling time for ib): 8 h, 12 h, 48 h, and 96 h Sampling time for condition ii): 5 days (at the end of storage in 2-8° C. stability chamber), 5 days and 8 h, and 5 days and 12 h Sampling time for condition iii): 8 days (at the end of storage in 2-8° C. stability chamber), 8 days and 8 h, and 8 days and 12 h Sample Analysis: Samples were analyzed by HPLC using a validated method (validation protocol not shown). [table] The concentration of each sample per the equation below: […] The % Initial (initial concentration) of each stored sample was determined per the equation below: […]

Where [1] appears, read: Batch 2, 5° C. for 8 days, 25° C./60% RH for 8 hr.
Setting [2] is: Batch 2, 5° C. for 8 days, 25° C./60% RH for 12 hr.
Where [3] appears, read: Batch 2, 8-day study (Table 1G), 5° C. for 5 days.

The record followed here is US12409183B2, “Method of using iloprost for treating frostbite” (BTG INTERNATIONAL INC., priority 2023, dated 2025).

Several values for one entry are separate records, joined by “and”; a condition that tells them apart may be missing. Equal entries are not always repeated. This continues a long series; more values of the same kind are listed elsewhere.

Take `CC#CCC(C)[C@H](O)/C=C/[C@@H]1[C@H]2C/C(=C/CCCC(=O)O)C[C@H]2C[C@H]1O` (stereo partly drawn) [iloprost, (5E)-5-[(3aS,4R,5R,6aS)-5-hydroxy-4-[(E,3S)-3-hydroxy-4-methyloct-1-en-6-ynyl]-3,3a,4,5,6,6a-hexahydro-1H-pentalen-2-ylidene]pentanoic acid]: the “Iloprost” value is 957.6 ng/mL and 970.1 ng/mL and 966.1 ng/mL and 989.6 ng/mL and 959.6 ng/mL and 964.8 ng/mL (Batch 1, 5° C. for 8 days to 25° C./60% RH study, Initial (T = 0)); 963.5 ng/mL and 955.9 ng/mL and 967.8 ng/mL and 938.7 ng/mL and 1033 ng/mL and 961.8 ng/mL (Batch 1, 5° C. for 8 days, 25° C./60% RH for 8 hr); 980.5 ng/mL and 964.1 ng/mL and 986.4 ng/mL and 967.5 ng/mL and 964.2 ng/mL and 952 ng/mL (Batch 1, 5° C. for 8 days, 25° C./60% RH for 12 hr); 994.4 ng/mL and 953.2 ng/mL and 978.4 ng/mL and 953.1 ng/mL and 984.2 ng/mL and 956.7 ng/mL (Batch 1, 8-day study (Table 1F), 5° C. for 5 days); 1011 ng/mL and 986 ng/mL and 1022 ng/mL (2×) and 1001 ng/mL (Batch 2, 5° C. for 5 days to 25° C./60% RH study, Initial (T = 0)); 1003 ng/mL and 1017 ng/mL and 985.9 ng/mL (Batch 2, 5° C. for 5 days, 25° C./60% RH for 12 hr). Also, the “Iloprost” value is 992.7 ng/mL and 979.6 ng/mL and 983.6 ng/mL and 998.9 ng/mL and 1009 ng/mL and 1026 ng/mL (Batch 2, 5° C. for 8 days to 25° C./60% RH study, Initial (T = 0)); 983.9 ng/mL and 964.5 ng/mL and 1004 ng/mL and 997.6 ng/mL and 1011 ng/mL and 1010 ng/mL under setting [1]; 967.5 ng/mL and 964.4 ng/mL and 1007 ng/mL and 1011 ng/mL and 1013 ng/mL and 1009 ng/mL under setting [2]; 970.1 ng/mL and 957.9 ng/mL and 1020 ng/mL and 1007 ng/mL and 993.6 ng/mL and 1014 ng/mL under setting [3]. The “% Initial” value is, setting by setting: under setting [1], 100% and 98% and 101% and 99% and 102%; under setting [2], 99% and 98% and 101% and 100% and 102%; under setting [3], 100%.
